# Library screen at single concentrations

Amino acid sequences for entries named in this document (tags omitted). Residues count along the entry.
UniProt Q4DA54, 1-478: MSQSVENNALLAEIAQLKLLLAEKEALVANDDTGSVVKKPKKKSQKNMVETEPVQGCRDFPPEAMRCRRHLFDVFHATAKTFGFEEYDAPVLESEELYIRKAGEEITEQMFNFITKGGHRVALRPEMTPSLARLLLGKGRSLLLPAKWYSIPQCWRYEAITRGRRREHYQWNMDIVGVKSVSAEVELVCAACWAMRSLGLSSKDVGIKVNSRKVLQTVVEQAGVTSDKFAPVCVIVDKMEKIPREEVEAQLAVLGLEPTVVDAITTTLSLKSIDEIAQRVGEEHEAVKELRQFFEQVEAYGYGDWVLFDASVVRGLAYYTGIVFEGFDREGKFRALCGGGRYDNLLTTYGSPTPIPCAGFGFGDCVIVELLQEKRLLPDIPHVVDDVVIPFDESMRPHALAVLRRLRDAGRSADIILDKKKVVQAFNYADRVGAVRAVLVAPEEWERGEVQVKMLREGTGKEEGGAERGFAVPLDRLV
UniProt Q8IDJ8, 1-583: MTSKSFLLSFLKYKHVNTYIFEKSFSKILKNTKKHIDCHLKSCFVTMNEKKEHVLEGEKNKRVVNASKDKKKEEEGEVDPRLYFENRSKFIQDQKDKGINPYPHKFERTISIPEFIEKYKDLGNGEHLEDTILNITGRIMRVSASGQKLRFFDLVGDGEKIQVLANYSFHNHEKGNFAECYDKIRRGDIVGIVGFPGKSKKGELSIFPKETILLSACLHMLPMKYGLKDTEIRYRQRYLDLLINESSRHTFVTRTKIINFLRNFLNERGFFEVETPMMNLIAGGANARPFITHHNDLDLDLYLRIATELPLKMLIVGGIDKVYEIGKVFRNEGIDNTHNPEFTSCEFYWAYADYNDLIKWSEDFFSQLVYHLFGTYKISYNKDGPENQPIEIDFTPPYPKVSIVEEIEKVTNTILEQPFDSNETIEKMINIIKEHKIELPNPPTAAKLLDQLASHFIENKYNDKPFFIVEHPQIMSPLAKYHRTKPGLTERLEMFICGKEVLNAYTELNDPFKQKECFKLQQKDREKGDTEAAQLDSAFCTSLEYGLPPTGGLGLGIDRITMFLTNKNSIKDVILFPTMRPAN

A: 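Enzyme assay of histidyl-tRNA synthetase; the read-out is not stated. Target: Histidine-tRNA ligase, Trypanosoma cruzi CL Brener (UniProt Q4DA54). Compounds at 30 µM. Direction is inferred from retests: higher values go with stronger inhibition. Size under these conditions: about 69,000 compounds, about 31 of them at 50% or above in at least one test.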
B: 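Lysine-tRNA ligase, Plasmodium falciparum 3D7 (UniProt Q8IDJ8). Enzyme assay of the cytosolic lysyl-tRNA synthetase in 384-well plates, read by luminescence. Tested at 30 µM. Direction is inferred from only a few compounds that gave an IC50; most scored high, so higher reads as stronger inhibition. Size under these conditions: about 69,000 compounds, about 49 of them at 50% or above in at least one test.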

Results are given as percent effect. How 0% and 100% were set is not recorded. Most values in the screen are low, and negative values occur. Compounds were drawn at random from those tested, without regard to their results.

compound | A | B
CC(C)C1CN(C(=O)c2cc(C3CC3)n[nH]2)CCC(=O)N1CC1CC1 (stereo not drawn) | 5.155 | 8.188
CN(C)C1(CNc2ncc(Br)cn2)CCOCC1 | 1.093 | -1.338
O=C(CCNS(=O)(=O)c1ccccc1F)NCc1ccoc1 | 8.333 | -0.6862
CNC(=O)CN1C(=O)CCC12CCCN(Cc1ccccc1F)C2 (stereo not drawn) | 1.942 | 2.111
Cc1cnc(C(=O)N2CCNCC2C(=O)NCc2ccncc2)cn1 (stereo not drawn) | 5.946 | 0.5168
Cc1noc(C)c1CN1CCCC2(CCN(C(=O)NC3CC3)C2)C1 (stereo not drawn) | 5.263 | 1.397
Cc1ccc(CN2CC[C@@H]3[C@H]2CCC(=O)N3Cc2ccncc2)s1 | 5.911 | -3.321
Cc1cnn(CCNCC(O)c2cccc(Br)c2)c1 (stereo not drawn) | 7.182 | 2.313
CCc1nc(CN(C)C2CCN(Cc3ccc(C#N)cc3F)C2)no1 (stereo not drawn) | 6.767 | -3.227
Cc1cncc(C2CCCN(Cc3cccn3C)C2)n1 (stereo not drawn) | 7.527 | 4.298
Cc1nc(CNC2CCc3ncnn3C2)oc1C (stereo not drawn) | 0.5128 | 2.879
O=C1CC(NCc2ccncc2)CN1Cc1cccc(F)c1 (stereo not drawn) | 5.833 | -1.457
Cc1cc(C(=O)N2C[C@@H]3[C@@H](C2)OCC(=O)N3CC2CC2)no1 | -46.86 | 2.933
CCc1ccccc1NC(=O)CCc1cnn(C)c1 | 1.339 | 4.994
COc1ccc(-c2cc(N)on2)cc1 | -6.936 | -1.22
CSC1(CNC(=O)N(C)Cc2sccc2C)CCOCC1 | 7.879 | -0.0846
COc1ccc(CC(=O)N2CCN(c3nccn3C)CC2)cc1 | 0 | 4.681
CN(C)CC(=O)N1CCc2ncnc(-c3ccoc3)c2CC1 | 6.452 | 3.157
Cc1c(CN2CCc3[nH]cnc3C2C(=O)O)[nH]c2ccc(F)cc12 (stereo not drawn) | 10.3 | 5.04
CNC(=O)c1cnc(/C=C/c2ccc(O)c(OC)c2)s1 | 1.724 | 6.689
CCc1nnc2n1CCN(C(=O)CCOc1cc(C)ccc1C)C2 | 7.921 | 4.987
c1cnnc(NCC2CN(CC3CCOCC3)CCO2)c1 (stereo not drawn) | 20 | -0.982
OC(COc1ccccc1)CN1CCN(c2nccs2)CC1 (stereo not drawn) | 1.667 | 2.104
O=C(Nc1cccnc1)C1CCCN(c2cc(-n3cccn3)ncn2)C1 (stereo not drawn) | 6.186 | 2.841
COCC(=O)N1CCC2(CC1)CN(c1cncnc1)C(=O)CO2 | -2.941 | 3.336
O=C(N1CCOCC1)N1CCC2(CC1)CN(c1ccccn1)CCO2 | 0.8403 | 0.7623
CCc1ccc(CN2Cc3nccn3CC(CN3CCOCC3)C2)o1 (stereo not drawn) | 17.65 | 4.398
Cc1ccoc1C(=O)N1Cc2c(Cn3ccnc3)nn(C)c2C1 | 11.22 | -1.81
CN1CCCN(c2nc(C3CC3)ns2)CC1 | 3.093 | 0.08475
O=S(=O)(c1ccc(N2CCCCC2)c2nonc12)N1CCCCC1 | -2.632 | 3.616
Cc1occc1C(=O)N1C[C@H](Oc2ccccn2)[C@H]2OCCC[C@H]21 | 9.184 | -1.02
CCc1noc(C)c1C(=O)Nc1cnn(CC(=O)NC2CCCC2)c1 | 5.102 | 6.142
CCn1ncnc1CN1CCC(CNC(=O)c2cccc(C)n2)C1 (stereo not drawn) | 3.518 | 3.617
CCn1ncc(CN2CCCC(n3c(=O)oc4ccccc43)C2)c1C (stereo not drawn) | 6.061 | 0.4553
Cc1nc(C)n(C2CCCN(C(=O)Cc3cn4ccccc4n3)C2)n1 (stereo not drawn) | 4.843 | 0.8709
O=C(COc1coc(CN2CCCC2)cc1=O)NCc1ccccc1Cl | -0.5464 | 2.367
CC(C)C(=O)NC1CCN(CCO)CC1 | 1.02 | -6.477
O=C(c1ccc(F)c(Br)c1)N1CCCN2CCCC2C1 (stereo not drawn) | 10 | 1.752
Cc1nn(C)c2nc(NCCN3CCCC(C(N)=O)C3)sc12 (stereo not drawn) | 4.95 | 3.401
COCC1c2c(cnn2C)CCN1Cc1cccc(C)c1 (stereo not drawn) | 1.22 | 4.274
O=C(c1cccnc1)N1CCOC(c2ccc(-c3cncnc3)cn2)C1 (stereo not drawn) | 8.511 | 2.187
Cc1nc(CN2Cc3nccn3CC(COCC3CC3)C2)cs1 (stereo not drawn) | 4.478 | 4.384
Cc1noc(C2CCN(C(=O)c3ccc(N(C)C)nc3)CC2)n1 | 0 | 1.172
CCOc1ccc2[nH]c(=O)c(CN(C)CCc3cn[nH]c3)cc2c1 | -0.5405 | 9.53
CCc1ccc(C(=O)N2CCCCC2Cn2cccn2)o1 (stereo not drawn) | 3.207 | -0.5297
O=C(CN1CCCc2c(F)cc(Br)cc21)N1CCN(C(=O)C2CC2)CC1 | 5.952 | 4.419
C[C@@H]1CN(C(=O)CCc2cnn(C)c2)C[C@@]1(O)C1CCC1 | 2.186 | 1.729
Cc1cccc(C(=O)N2CCN(C)CC2)c1NC(=O)c1ccncc1 | 13.25 | 3.636
Cc1noc(C)c1CN1C[C@@H]2COC[C@H](C(=O)N3CCCCO3)[C@@H]2C1 | 7.104 | 7.662
Cc1cc(C(=O)N2CCCC(C(=O)c3cccs3)C2)c(=O)[nH]c1C (stereo not drawn) | 0.8 | -3.78
CC(C)(C)c1cc(NC(=O)CN(Cc2cccs2)Cc2cccs2)on1 | 1.478 | 8.49
CC(C)N1CCc2c(c(COc3cncnc3)nn2CC2CC2)C1 | 0 | 3.029
O=C(CNc1cccc(S(=O)(=O)C(F)F)c1)Nc1ccccc1 | 1.149 | 1.143
CC(NC(=O)NCCCc1n[nH]c(N)c1C#N)c1ccc(F)c(F)c1 (stereo not drawn) | 8.571 | -0.5525
CCc1nc(CN2CCCCC2C(N)=O)cs1 (stereo not drawn) | 3.879 | 5.796
O=C(C1CC1)N1CCCN(c2ncnc3c2CCNCC3)CC1 | 7.895 | 4.497
Cc1ccccc1CC(=O)NS(=O)(=O)c1cccc2cnccc12 | -1.84 | 7.057
O=c1cc(Cn2ccnc2)nc2n1CCCN(CC1CCOCC1)C2 | 0 | 0.8214
O=C(COc1cccc2c1CCC2=O)NCCSc1ccccc1 | 3.261 | 7.51
O=C(NCc1cccnc1N1CCCC(O)C1)c1ccsc1 (stereo not drawn) | 3.659 | 2.342
Cn1cnnc1C1CCCN(C(=O)c2ccccn2)C1 (stereo not drawn) | 6.122 | -1.151
O=C(NCc1ccco1)[C@@]12CCO[C@@H]1CCN(CCN1CCCC1)C2 | 0.5405 | 1.115
CC(C)n1cnnc1CN1C(=O)CCc2ccccc21 | 3.665 | 2.371
Cc1ccc(N2C(=O)N[C@@H]3CCN(C(=O)C4CC4)[C@@H]3C2=O)cc1 | 0 | 6.103

For reference, 6 entries once more:

| compound | A | B |
|---|---|---|
| `CCc1noc(C)c1C(=O)Nc1cnn(CC(=O)NC2CCCC2)c1` | 5.102 | 6.142 |
| `CC(C)N1CCc2c(c(COc3cncnc3)nn2CC2CC2)C1` | 0 | 3.029 |
| `Cc1cc(C(=O)N2C[C@@H]3[C@@H](C2)OCC(=O)N3CC2CC2)no1` | -46.86 | 2.933 |
| `Cc1ccoc1C(=O)N1Cc2c(Cn3ccnc3)nn(C)c2C1` | 11.22 | -1.81 |
| `CN1CCCN(c2nc(C3CC3)ns2)CC1` | 3.093 | 0.08475 |
| `CC(C)C1CN(C(=O)c2cc(C3CC3)n[nH]2)CCC(=O)N1CC1CC1` (stereo not drawn) | 5.155 | 8.188 |

Measurements from “University of Dundee, Small-Polar-MMV Screening Library” (2021), ChEMBL document CHEMBL3988442.